In PMC6904774:
No constants are given. Whether binding was seen depends on the method and setting. For part of these data: Binding seen in cells or lysates may run through a third protein. Some results given as binding are weak or reduced against the parent protein; the word gives no strength. For part of these data: Where a sequence is shown, tags or fusion partners need not be part of it. Values belong to the molecule of their own block, whether it stands above or below them.

The chains behind the UniProt entries cited, without tags or fusion partners. Where a name states a change or a piece, a line headed by the entry shows the natural chain unless it says otherwise. A line that says so, or that is headed by a name, gives the form on record, which may keep a tag or linker. Residues count along the entry.
UniProt Q96EB6: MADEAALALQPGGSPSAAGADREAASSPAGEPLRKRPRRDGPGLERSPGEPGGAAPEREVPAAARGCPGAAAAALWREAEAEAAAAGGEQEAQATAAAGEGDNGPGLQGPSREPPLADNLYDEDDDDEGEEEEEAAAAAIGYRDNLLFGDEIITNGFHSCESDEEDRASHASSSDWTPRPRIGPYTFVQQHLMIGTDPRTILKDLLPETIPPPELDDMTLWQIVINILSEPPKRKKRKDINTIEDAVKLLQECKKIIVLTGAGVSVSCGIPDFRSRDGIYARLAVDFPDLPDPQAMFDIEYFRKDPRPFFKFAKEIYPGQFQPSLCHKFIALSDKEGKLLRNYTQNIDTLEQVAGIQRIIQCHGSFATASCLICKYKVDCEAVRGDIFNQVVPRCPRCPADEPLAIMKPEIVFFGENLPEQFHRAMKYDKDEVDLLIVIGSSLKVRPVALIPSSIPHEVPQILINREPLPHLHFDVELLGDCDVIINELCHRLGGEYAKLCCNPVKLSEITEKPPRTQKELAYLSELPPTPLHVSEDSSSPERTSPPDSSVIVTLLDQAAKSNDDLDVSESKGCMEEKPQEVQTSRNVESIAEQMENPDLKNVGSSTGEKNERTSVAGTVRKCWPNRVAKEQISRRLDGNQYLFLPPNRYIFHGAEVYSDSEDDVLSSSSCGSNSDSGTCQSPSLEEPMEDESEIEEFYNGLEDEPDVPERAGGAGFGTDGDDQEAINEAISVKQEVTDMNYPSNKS
GST-SIRT1 (Wt): residues 82-747 of Q96EB6
GST-STACs-AD wild-type: residues 82-243 of Q96EB6
GST-STACs-ADΔNRB (Q96EB6, form named): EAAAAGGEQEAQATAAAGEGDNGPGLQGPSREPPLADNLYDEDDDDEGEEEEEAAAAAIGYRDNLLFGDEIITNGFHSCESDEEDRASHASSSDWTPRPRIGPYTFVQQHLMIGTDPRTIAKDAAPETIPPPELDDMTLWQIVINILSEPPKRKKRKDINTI
GST-SIRT1ΔNRB (Q96EB6, form named): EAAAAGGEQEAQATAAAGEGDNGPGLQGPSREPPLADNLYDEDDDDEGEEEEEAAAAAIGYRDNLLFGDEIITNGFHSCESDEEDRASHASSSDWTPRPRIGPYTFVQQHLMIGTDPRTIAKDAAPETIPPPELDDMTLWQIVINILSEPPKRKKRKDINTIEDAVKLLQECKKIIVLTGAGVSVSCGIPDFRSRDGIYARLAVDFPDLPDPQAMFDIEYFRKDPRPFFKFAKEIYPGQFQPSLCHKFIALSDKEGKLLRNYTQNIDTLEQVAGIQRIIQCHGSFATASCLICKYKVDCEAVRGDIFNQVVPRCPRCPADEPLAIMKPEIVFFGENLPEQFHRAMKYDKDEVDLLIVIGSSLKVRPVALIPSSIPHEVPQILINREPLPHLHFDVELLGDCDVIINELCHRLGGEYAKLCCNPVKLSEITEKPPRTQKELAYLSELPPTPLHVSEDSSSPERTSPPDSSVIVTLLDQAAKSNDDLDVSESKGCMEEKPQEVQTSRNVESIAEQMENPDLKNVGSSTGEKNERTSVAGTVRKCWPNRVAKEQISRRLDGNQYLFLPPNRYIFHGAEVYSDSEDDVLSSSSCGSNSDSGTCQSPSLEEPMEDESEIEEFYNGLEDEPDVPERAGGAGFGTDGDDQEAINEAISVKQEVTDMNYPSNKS
UniProt P06700: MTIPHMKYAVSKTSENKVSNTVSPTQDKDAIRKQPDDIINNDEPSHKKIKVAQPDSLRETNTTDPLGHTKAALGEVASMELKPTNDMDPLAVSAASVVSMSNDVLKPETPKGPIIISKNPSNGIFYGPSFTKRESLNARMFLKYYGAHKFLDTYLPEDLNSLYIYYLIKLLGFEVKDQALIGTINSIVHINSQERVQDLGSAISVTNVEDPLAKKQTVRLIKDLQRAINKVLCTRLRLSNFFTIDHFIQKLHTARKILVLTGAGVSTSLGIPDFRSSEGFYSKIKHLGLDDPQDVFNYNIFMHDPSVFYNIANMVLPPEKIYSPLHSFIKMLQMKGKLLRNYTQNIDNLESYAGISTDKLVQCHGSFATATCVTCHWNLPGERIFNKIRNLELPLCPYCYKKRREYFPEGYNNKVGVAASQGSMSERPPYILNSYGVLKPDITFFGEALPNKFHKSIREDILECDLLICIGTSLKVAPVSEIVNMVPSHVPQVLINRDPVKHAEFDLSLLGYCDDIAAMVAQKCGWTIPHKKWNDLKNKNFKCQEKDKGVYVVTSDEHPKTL
UniProt P03372: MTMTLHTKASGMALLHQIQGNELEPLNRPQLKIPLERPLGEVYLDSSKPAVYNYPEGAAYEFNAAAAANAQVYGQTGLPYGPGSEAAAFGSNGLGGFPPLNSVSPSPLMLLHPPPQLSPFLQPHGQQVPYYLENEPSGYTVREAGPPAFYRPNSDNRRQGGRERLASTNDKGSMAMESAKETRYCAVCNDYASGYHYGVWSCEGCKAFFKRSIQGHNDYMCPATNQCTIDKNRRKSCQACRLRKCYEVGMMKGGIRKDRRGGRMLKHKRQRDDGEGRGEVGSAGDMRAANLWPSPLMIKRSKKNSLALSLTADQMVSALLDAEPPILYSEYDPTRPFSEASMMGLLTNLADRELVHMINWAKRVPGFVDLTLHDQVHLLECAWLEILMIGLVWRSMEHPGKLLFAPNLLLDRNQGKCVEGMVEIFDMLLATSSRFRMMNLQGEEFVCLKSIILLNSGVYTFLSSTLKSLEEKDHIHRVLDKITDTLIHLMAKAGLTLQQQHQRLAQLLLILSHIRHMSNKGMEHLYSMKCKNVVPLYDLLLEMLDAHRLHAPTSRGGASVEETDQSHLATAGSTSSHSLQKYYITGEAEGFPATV
UniProt Q92731: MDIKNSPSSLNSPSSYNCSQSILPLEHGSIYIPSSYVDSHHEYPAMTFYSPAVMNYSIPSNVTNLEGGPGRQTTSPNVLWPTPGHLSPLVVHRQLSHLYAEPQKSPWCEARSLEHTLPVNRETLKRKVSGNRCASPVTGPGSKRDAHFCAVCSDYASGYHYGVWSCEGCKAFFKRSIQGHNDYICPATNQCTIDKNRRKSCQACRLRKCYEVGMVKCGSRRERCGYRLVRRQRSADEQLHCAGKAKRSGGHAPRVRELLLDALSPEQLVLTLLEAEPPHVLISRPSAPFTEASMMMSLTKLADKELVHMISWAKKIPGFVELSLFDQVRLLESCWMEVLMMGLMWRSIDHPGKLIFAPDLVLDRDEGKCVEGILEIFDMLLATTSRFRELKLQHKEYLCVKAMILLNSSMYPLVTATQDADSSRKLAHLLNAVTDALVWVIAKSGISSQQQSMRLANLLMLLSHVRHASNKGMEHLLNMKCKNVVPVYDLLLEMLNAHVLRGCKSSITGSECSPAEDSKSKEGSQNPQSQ

What was measured:
[1] = target: T1, Gal4DBD fusion of the Sir2 NR-box peptide (S. cerevisiae); assay: two-hybrid; mammalian two-hybrid in HEK293 cells: Gal4DBD fusions with VP16-ERα or VP16-ERβ and the reporter pFR-Luc (5x Gal4-luc); DMSO or 100 nM E2; Gal4DBD (pM) as reference
T1 sequence: IYYLIKLLGFE

[2] = target: T2, Gal4DBD fusion of the dSir2 NR-box peptide (Drosophila (D. melanogaster)); assay: as above
T2 sequence: WDYLAHLLNEP

[3] = target: T3, Gal4DBD fusion of the Sir-2.1 NR-box peptide (C. elegans); assay: as above
T3 sequence: FAILSDLLERA

[4] = target: T4, Gal4DBD fusion of the NR-box peptide of Sirt1 of N. furzeri (N. furzeri); assay: as above
T4 sequence: RAILRDLLPET

Gal4DBD-PGC-1α = target: T5, Gal4DBD-PGC-1α (UniProt O70343); assay: as above
T5 sequence: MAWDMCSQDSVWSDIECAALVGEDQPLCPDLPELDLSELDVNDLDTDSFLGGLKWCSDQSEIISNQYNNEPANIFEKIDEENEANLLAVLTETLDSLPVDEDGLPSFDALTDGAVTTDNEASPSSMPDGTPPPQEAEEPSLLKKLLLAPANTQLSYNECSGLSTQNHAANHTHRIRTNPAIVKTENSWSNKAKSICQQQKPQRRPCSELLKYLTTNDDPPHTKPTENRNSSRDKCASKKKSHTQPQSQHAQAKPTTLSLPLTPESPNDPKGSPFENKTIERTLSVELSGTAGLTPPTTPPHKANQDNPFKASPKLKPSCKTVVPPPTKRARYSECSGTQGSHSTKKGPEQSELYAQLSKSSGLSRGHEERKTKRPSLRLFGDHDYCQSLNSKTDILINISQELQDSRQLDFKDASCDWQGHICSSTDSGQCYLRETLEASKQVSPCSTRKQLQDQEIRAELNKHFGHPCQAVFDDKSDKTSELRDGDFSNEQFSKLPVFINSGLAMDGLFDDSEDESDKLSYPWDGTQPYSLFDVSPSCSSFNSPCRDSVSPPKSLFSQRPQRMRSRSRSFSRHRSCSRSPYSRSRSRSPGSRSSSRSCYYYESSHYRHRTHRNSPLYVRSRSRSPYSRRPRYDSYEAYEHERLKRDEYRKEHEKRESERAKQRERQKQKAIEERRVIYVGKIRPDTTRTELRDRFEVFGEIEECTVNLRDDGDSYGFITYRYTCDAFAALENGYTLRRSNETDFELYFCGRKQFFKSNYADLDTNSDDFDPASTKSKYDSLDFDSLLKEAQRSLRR

[5] = target: T6, Gal4DBD fusion peptide of the wild-type SIRT1 NR-box (human); assay: as above
T6 sequence: RTILKDLLPET

GST-SIRT1 (Wt) (human) [6] = target: GST-SIRT1 (Wt) (human) (UniProt Q96EB6); assay: pull-down; GST or GST fusions immobilised on glutathione sepharose beads; 5 µl 35S-labelled in vitro translated ERα or ERβ; 20 mM HEPES pH 7.5, 150 mM NaCl, 0.1 mM EDTA, 10% glycerol, 0.05% NP-40; 2 h at 4°C; with DMSO or 1 µM E2; PAGE and autoradiography; only the target purified
GST-STACs-ADΔNRB (human) = GST-STACs-ADΔNRB (human) (UniProt Q96EB6); assay: as above
GST-SIRT1ΔNRB (human) = GST-SIRT1ΔNRB (human) (UniProt Q96EB6); assay: as above
GST-Sir2 (S. cerevisiae) [7] = target: GST-Sir2 (S. cerevisiae) (UniProt P06700); assay: as above
[8] = target: GST-STACs-AD wild-type (human) (UniProt Q96EB6); assay: as above
GST-Sir-2.1 (C. elegans) [9] = target: T7, GST-Sir-2.1 (C. elegans) (UniProt Q21921); assay: as above
T7 sequence: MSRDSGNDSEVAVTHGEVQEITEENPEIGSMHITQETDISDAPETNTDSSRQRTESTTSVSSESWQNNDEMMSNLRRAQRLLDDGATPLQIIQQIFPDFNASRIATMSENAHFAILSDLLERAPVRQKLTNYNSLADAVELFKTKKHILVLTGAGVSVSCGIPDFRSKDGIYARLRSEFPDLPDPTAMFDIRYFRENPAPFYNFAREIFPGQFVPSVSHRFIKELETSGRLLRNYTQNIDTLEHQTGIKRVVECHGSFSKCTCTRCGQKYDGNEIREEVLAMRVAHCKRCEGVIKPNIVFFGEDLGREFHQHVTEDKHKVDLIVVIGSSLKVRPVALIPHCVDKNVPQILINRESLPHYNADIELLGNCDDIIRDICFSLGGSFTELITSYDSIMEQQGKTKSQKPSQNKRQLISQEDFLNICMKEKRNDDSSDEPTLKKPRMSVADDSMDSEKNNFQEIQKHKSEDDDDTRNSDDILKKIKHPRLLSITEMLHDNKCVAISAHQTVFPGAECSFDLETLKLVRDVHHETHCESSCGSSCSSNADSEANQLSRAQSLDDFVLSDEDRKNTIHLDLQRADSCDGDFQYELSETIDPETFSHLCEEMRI

GST-SIRT1 (Wt) (human) [10] = target: GST-SIRT1 (Wt) (human) (UniProt Q96EB6); assay: pull-down; GST or GST fusions of Sir-2.1, Sir2 and SIRT1 (Wt only) incubated with in vitro expressed DAF-12 with DMSO or 1 µM Δ7-dafachronic acid; PAGE and autoradiography; only the target purified
GST-Sir2 (S. cerevisiae) [11] = target: GST-Sir2 (S. cerevisiae) (UniProt P06700); assay: as above
GST-Sir-2.1 (C. elegans) [12] = target: T7, GST-Sir-2.1 (C. elegans); assay: as above

- binding [1]: binds
- binding [2]: binds
- binding [3]: binds
- binding [4]: binds
- binding (Gal4DBD-PGC-1α): binds
- binding [5]: binds
Molecule: VP16-ERα (from UniProt P03372 1-595) (receptor)

- binding [1]: binds
- binding [2]: binds
- binding [3]: binds
- binding [4]: binds
- binding (Gal4DBD-PGC-1α): binds
- binding [5]: binds
Molecule: VP16-ERβ (from UniProt Q92731 1-530) (receptor)

- binding (GST-SIRT1 (Wt) (human) [6]): binds
- binding (GST-STACs-ADΔNRB (human)): binds weakly
- binding (GST-SIRT1ΔNRB (human)): binds
- binding (GST-Sir2 (S. cerevisiae) [7]): binds
- binding [8]: binds
- binding (GST-Sir-2.1 (C. elegans) [9]): binds
Molecule: in vitro translated human ERα (from UniProt P03372 1-595) (receptor)

- binding (GST-SIRT1 (Wt) (human) [6]): binds
- binding (GST-STACs-ADΔNRB (human)): binds weakly
- binding (GST-SIRT1ΔNRB (human)): binds
- binding (GST-Sir2 (S. cerevisiae) [7]): binds
- binding [8]: binds
- binding (GST-Sir-2.1 (C. elegans) [9]): binds
Molecule: in vitro translated human ERβ (from UniProt Q92731 1-530) (receptor)

- binding (GST-SIRT1 (Wt) (human) [10]): binds
- binding (GST-Sir2 (S. cerevisiae) [11]): binds
- binding (GST-Sir-2.1 (C. elegans) [12]): binds
B1: in vitro expressed DAF-12 (receptor, UniProt G5EFF5 1-753)
chain: MGTNGGVIAEQSMEIETNENPDKVEEPVVRRKRVTRRRHRRIHSKNNCLTPPNSDDDPQMSTPDDPVIHSPPSIGAAPGMNGYHGSGVKLEESSGACGSPDDGLLDSSEESRRRQKTCRVCGDHATGYNFNVITCESCKAFFRRNALRPKEFKCPYSEDCEINSVSRRFCQKCRLRKCFTVGMKKEWILNEEQLRRRKNSRLNNTGTCNKRSQPGNQQSPQGPNQQPHLSPHHPGVAIYPPQPQRPLTINPMDNQMMHHMQANRPNAMPQLISPPGAQPYPLTSPVGSSASDSPPNRSLTMMHNGEKSPDGYDPNIMAHRAPPPSFNNRPKMDSGQVVLSTEEYKQLLSRIPGAQVPGLMNEEEPINKRAAYNCNGHPMPAETTPPYSAPMSDMSLSRHNSTSSGTEKNHMTHSTVSAIPGNSAQNHFDIASFGMGIVTATGGGDAAEEMYKRMNMFYENCIQSALDSPENQEPKPQEAMIPKEEYMTPTHGFQYQSDPYQVPPAERNINYQLNAAELKALDAVREAFYGMDDPMEQGRQMQSFLKANKTPADIMNIMDVTMRRFVKVAKGVPAFREVSQEGKFSLLKGGMIEMLTVRGVTRYDASTNSFKTPTIKGQNVSVNVDDMFAKLNANAQAQKAKCLEFFGFFDEEIKKNELAVYLVMLAVLFSVRSDPPMNENDVRIVTERHNHFMSLLNRYLESLFGEQARRIFERIPKALGLLNEIARNAGMLFMGTVRSGEAEELPGEFFKIK
modifications: [35S]-methionine labelled
